According to PubChem BioAssay AID2685 (National Center for Advancing Translational Sciences (NCATS), 2010):
The campaign covered roughly 320,000 compounds. About 2,100 (0.66%) were called active. Inconclusive results, whose numbers are uncertain, are shown with a selection of clear calls. Calls come from the whole dose curve; as a rule, active = well fitted inhibition curve with a large enough effect in the signal ratio, with a control signal flat (not every such curve was filed as active); inconclusive = small, poorly fitted or top-dose-only effect, or effect the other way, or a change in a side signal; inactive = flat fitted curve, though single readings scatter; the % refers to the signal ratio. Potencies of inconclusive entries are doubtful fits and often do not repeat.

Experiment: qHTS Assay for Lipid Storage Modulators in Drosophila S3 Cells
Conditions: BODIPY lipid droplet fluorescence, 18-24 h, cells fed with added oleic acid; lipid storage change, negative = inhibition: at 46.1 µM (top of the series) unless noted
Procedure, shortened: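 Drosophila S3 cells loaded with oleic acid (400 uM, as added) and compounds at several concentrations; lipid droplets imaged by 488-nm laser-scanning cytometry, 500–530 nm intensity and object ratio to cell channel. Percent activity normalized to 20 uM Triacsin C.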
% is set by controls: 0 for no effect and ±100 for the full control effect; potency is the fitted concentration of half-maximal effect.

SMILES	lipid storage change, negative = inhibition	Potency
O=C(CSc1nc2ccccc2o1)Nc1nccs1	inconclusive: -25.9%	–
C=CCOc1ccc(/C=C/C(=O)OCC(=O)NC2CCCCCC2)cc1	–	inconclusive: 29.1 µM [activator, single point]
CCOC(=O)c1ccccc1N/C=C/C(=O)c1cccs1	–	inconclusive: 16.4 µM [falling, single point]
Cc1c(Cl)c([N+](=O)[O-])nn1CCCC(=O)N(Cc1ccccc1)Cc1ccccc1	inconclusive: 38.9%	–
Cc1cc(-c2nc(C)c(C(=O)NNS(=O)(=O)c3ccccc3)s2)no1	inconclusive: -30.7%	–
CSCCC(NS(=O)(=O)c1ccccc1)C(=O)Nc1nccs1 (stereo not drawn)	–	inconclusive: 18.4 µM [activator, partial curve]
COC(=O)c1cc(OC(=O)c2ccc(=O)[nH]c2)cc(C(=O)OC)c1	inconclusive: -21.3%	–
Cc1cccc(C)c1OCc1cc(C(=O)N2CCN(Cc3nccn3C)CC2)no1	inconclusive: 24.1%	–
COc1cccc(/C=C(/C(=O)OCC(=O)NCC2CCCO2)c2ccccc2)c1 (stereo not drawn)	inconclusive: 11.5%	–
C=CCSc1nnc(NC(=O)Cn2cnc3c2c(=O)n(C)c(=O)n3C)s1	–	inconclusive: 0.651 µM [falling, single point]
N#Cc1ccc(NC(=O)Cn2cnc([N+](=O)[O-])c2)cc1	inconclusive: 7.84%	–
O=C(Oc1ccc(-c2nnco2)cc1)c1ccco1	inconclusive: -8.5%	–
CCCc1cc(N2CCCC(C(=O)NCc3ccc4c(c3)OCO4)C2)n2ncnc2n1 (stereo not drawn)	–	inconclusive: 0.291 µM [activator, partial curve, poor fit]
Cc1cccc(C(=O)NNS(=O)(=O)c2ccc(F)cc2)c1O	–	inconclusive: 9.2 µM [activator, partial curve]
CCC(C)(C)NC(=O)C1CC(=O)N(CCc2ccc(F)cc2)C1 (stereo not drawn)	–	active: 23.1 µM
CCN1C(=O)[C@H]2[C@@H](c3ccc(-c4ccc(OC)cc4)cc3)N3CCC[C@@]3(C(=O)OC)[C@H]2C1=O	–	inconclusive: 0.0651 µM [activator, full curve, poor fit]
CCCN(CC(=O)Nc1ccccc1C)C(=O)C1CC(=O)N(c2ccc(CC)cc2)C1 (stereo not drawn)	inconclusive: 11.6%	–
O=C1CCC(C(=O)N(Cc2cccs2)C2(C(=O)NC3CCCCC3)CCCCC2)N1 (stereo not drawn)	inconclusive: -55.6%	–
C/C(=N/NC(=O)c1ccoc1C)c1cccc(NC(=O)C2CC2)c1	inconclusive: -30%	–
Cc1ccc(NNC(=S)Nc2ccc(C(C)C)cc2)c(C)c1	inconclusive: -57.6%	–
Cc1cccc(OC(C)C(=O)Nc2ccccc2C(=O)N2CCCCC2)c1 (stereo not drawn)	–	inconclusive: 6.51 µM [activator, single point]
Cc1nnc(SCC2=C(C(=O)O)N3C(=O)C(NC(=O)COc4ccccc4)C3SC2)s1 (stereo not drawn)	inconclusive: 7.7%	–
CN(/N=C/c1cccnc1)c1cnc2ccccc2n1	inconclusive: -94.8%	–
O=C(COC(=O)Cc1ccccc1F)Nc1ccc(F)cc1F	inconclusive: -20.2%	–

A section of the results above, for reference:
SMILES	lipid storage change, negative = inhibition	Potency
COC(=O)c1cc(OC(=O)c2ccc(=O)[nH]c2)cc(C(=O)OC)c1	inconclusive: -21.3%	–
Cc1cccc(C)c1OCc1cc(C(=O)N2CCN(Cc3nccn3C)CC2)no1	inconclusive: 24.1%	–

Shown bar-delimited: part of the list above
SMILES | lipid storage change, negative = inhibition | Potency
CCCN(CC(=O)Nc1ccccc1C)C(=O)C1CC(=O)N(c2ccc(CC)cc2)C1 (stereo not drawn) | inconclusive: 11.6% | –
Cc1nnc(SCC2=C(C(=O)O)N3C(=O)C(NC(=O)COc4ccccc4)C3SC2)s1 (stereo not drawn) | inconclusive: 7.7% | –

Later entries:

SMILES	lipid storage change, negative = inhibition	Potency
O=C(Nc1nccs1)c1cc(-c2ccccc2)nc2ccccc12	–	inconclusive: 1.3 µM [activator, partial curve, poor fit]
O=C(Cc1ccccc1)NN1CCCCC1	–	inconclusive: 29.1 µM [activator, partial curve]
Cn1cccc1-c1nc2ccccc2n1C	–	inconclusive: 6.51 µM [falling, single point]
CCOc1ccccc1C1c2[nH]c3ccccc3c2C[C@H]2C(=O)N(C3CCN(Cc4ccccc4)CC3)CC(=O)N12 (stereo partly drawn)	–	inconclusive: 0.58 µM [activator, full curve]
CCn1cc(CN2CCC(C(=O)Nc3ccc(Oc4ccccc4F)cc3)CC2)c(C)n1	inconclusive: -7.81%	–
CC(C)(C)c1ccc(-c2nn(CCC#N)cc2/C=N/O)cc1	inconclusive: 16.3%	–
CCOC(=O)C1CCCN(C(=O)c2cccc(NC(=O)C(CC)CC)c2)C1 (stereo not drawn)	inconclusive: 136%	–
CCOc1ncccc1C(=O)Nc1ccc(Cl)c(S(=O)(=O)N2CCCC2)c1	inconclusive: 44.9%	–
Cc1cccc(C(C(=O)NC2CCCCC2)N(Cc2cccnc2)C(=O)c2csnn2)c1 (stereo not drawn)	inconclusive: 381%	–
CCCN1CCC(NC(=O)Nc2cc(Cl)ccc2OC)CC1	inconclusive: 37.4%	–
CCOC(=O)N1CCN(C(=O)c2ccc(CNS(=O)(=O)c3ccc(NC(C)=O)cc3)cc2)CC1	inconclusive: -16.6%	–
CCCCCCN1N=C(C)C(C(=O)c2ccc(Cl)cc2)C1=O (stereo not drawn)	inconclusive: 12%	–
CC(C)OCCCn1c(SCC(=O)N2CCCC2=O)nc2ccccc2c1=O	–	inconclusive: 4.61 µM [rising, full curve]
CC(C)C[C@H](NC(=O)c1[nH]cnc1C(=O)N[C@@H](C)c1ccccc1)C(=O)OC(C)(C)C	inconclusive: -28.3%	–
CCOC(=O)Cn1c(CN2CCN(C(c3ccccc3)c3ccccc3)CC2)nc2c1c(=O)n(C)c(=O)n2C	inconclusive: 32.4%	–
COc1ccc(CCNC(=O)c2cc(C3CC3)nc3c2cnn3C(C)C)cc1	–	inconclusive: 29.1 µM [falling, single point]
C/C(CCC1CC(C)OC1=O)=N\NC(N)=S (stereo not drawn)	–	inconclusive: 2.91 µM [activator, full curve]
CC12CN3CC(C)(CN(C1)C3c1ccc(Cl)cc1)C2 (stereo not drawn)	inactive: -3.46%	–
Cc1onc(-c2ccccc2Cl)c1C(=O)Nc1nnc(-c2ccc(F)cc2)s1	inconclusive: 31.6%	–
Cc1ccc(NC(=O)c2ccc(NS(=O)(=O)/C=C/c3ccccc3)cc2)nc1	inconclusive: 45.5%	–
Cc1cccc(-n2c(N)cc(=O)nc2SCC(=O)Nc2cc(C)on2)c1	–	inconclusive: 0.0065 µM [falling, full curve]
COc1ccc(O)c(-c2[nH]ncc2C(=O)c2cccc(C)c2)c1	inconclusive: -10.9%	–
Cc1ccccc1Cn1c(=O)n(CCCC(=O)NCc2ccco2)c(=O)c2ccccc21	inconclusive: -32%	–
CCNC(=O)CC1C(=O)N(c2ccc(OC)cc2)C(=O)N1Cc1ccc(OC)cc1 (stereo not drawn)	inconclusive: -19%	–
